Experimental data as given in PubChem BioAssay AID2718 (Broad Institute, 2010).
The whole screen tested about 320,000 compounds, of which about 480 (0.15%) were called active. The inconclusive results got no clear call from the source; some entries with a clear call stand among them for comparison. No stated cut-off is given here; in the data, active means inhibition above about 26% (passing the limit was not always enough); inconclusive means no clear call, values can overlap the other calls.

Amino acid sequences for entries named in this document (tags omitted).
UniProt O15379, whole entry, looked up: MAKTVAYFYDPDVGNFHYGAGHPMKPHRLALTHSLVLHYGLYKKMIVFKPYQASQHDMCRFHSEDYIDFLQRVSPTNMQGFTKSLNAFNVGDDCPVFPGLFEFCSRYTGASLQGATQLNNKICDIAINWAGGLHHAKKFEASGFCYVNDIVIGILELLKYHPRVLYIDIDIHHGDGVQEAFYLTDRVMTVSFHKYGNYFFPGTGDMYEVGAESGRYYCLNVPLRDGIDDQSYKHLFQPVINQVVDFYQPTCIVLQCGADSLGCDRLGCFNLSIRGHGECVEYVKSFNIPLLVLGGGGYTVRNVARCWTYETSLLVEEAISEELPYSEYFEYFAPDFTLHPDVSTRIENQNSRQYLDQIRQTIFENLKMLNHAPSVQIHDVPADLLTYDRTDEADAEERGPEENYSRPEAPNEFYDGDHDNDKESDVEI

Each compound was assayed against Histone deacetylase 3 (Homo sapiens) (UniProt O15379) (assay: HDAC3 deacetylase inhibitors, primary screen, biochemical, fluorescence, cell-free homogeneous (AID 2718)). Settings: recombinant HDAC3, fluorogenic peptide/trypsin coupled, at 8.3 µM, hits give high values.
For Cc1nc2ccc(F)cc2cc1C(=O)Nc1cccc(Cl)c1C, the inhibition was inconclusive: 16.6%.
CCCCNC(=O)CS(=O)Cc1nc(-c2ccc(C)cc2)oc1C (configuration not stated) was tested, and the inhibition was inactive: 2.58%.
COc1ccccc1N(CC(=O)Nc1cc(C)on1)S(=O)(=O)c1ccc(Cl)cc1 was tested, and the inhibition was inconclusive: 17.9%.
With Cn1c(=O)cc(OCC(=O)N2CCN(c3ccccc3F)CC2)c2ccccc21 the inhibition was inconclusive: 19.9%.
In the case of COc1cc(/C=C2\C(=O)NN(c3ccccc3)C2=O)cc([N+](=O)[O-])c1O, the inhibition is reported as inactive: 11.7%.
With CCCCC1C2C(=O)N(c3ccc(C)cc3)C(=O)C2ON1c1ccccc1 (configuration not stated) the inhibition was inconclusive: 23.1%.
O=C(OCc1ccc([N+](=O)[O-])cc1)c1cc2ccccc2oc1=O was tested, and the inhibition was inconclusive: 37.4%.
For CCCCOC(=O)Nc1nc2ccc([N+](=O)[O-])cc2s1, the inhibition was inactive: 5.37%.
Cc1cc(C)nc(-n2ncc(C#N)c2N)n1 was tested, and the inhibition was inactive: -3.6%.
In the case of O=C(CSc1nnc(-c2ccco2)o1)c1ccccc1, the inhibition is reported as inconclusive: 10.3%.
In the case of O=S(=O)(Nc1ccc(S(=O)(=O)Nc2nccs2)cc1)c1ccc(Br)cc1, the inhibition is reported as active: 43.1%.
In the case of O=C1/C(=C/c2cccnc2)Oc2cc(OS(=O)(=O)c3ccccc3)ccc21, the inhibition is reported as inconclusive: 37.3%.
With Nc1nc(-c2cccc(Br)c2)cs1 the inhibition was inactive: -4%.
In the case of O=C(CSc1nnc(Nc2ccccc2)s1)NC1CCS(=O)(=O)C1 (configuration not stated), the inhibition is reported as inactive: -0.566%.
For O=C(c1cccc([N+](=O)[O-])c1)N1CCN(c2ccc(Cl)cc2)CC1, the inhibition was inconclusive: 23.1%.
C=CCn1c(N)cc(=O)nc1SCC(=O)N1CCN(c2ccc(F)cc2)CC1 was tested, and the inhibition was inactive: -3.99%.
COc1ccc(N2CCN(C(=O)c3ccc(N(C)S(=O)(=O)c4ccc(C)cc4)cc3)CC2)cc1 was tested, and the inhibition was inconclusive: 19.8%.
With O=C(c1ccc(F)cc1F)N1CCCN(c2nc(-c3ccccc3)ns2)CC1 the inhibition was inconclusive: 13.5%.
For c1ccc2nc3c(nc2c1)CCc1nonc1-3, the inhibition was inconclusive: 21.7%.
For CSc1nnnn1CCn1nnnc1SC, the inhibition was inconclusive: 11.8%.
With COc1ccc(C(=O)O)cc1F the inhibition was inconclusive: 22.4%.
For O=C(CSc1ncccc1C(=O)O)NC12CC3CC(CC(C3)C1)C2, the inhibition was inconclusive: 15.8%.
For COc1cc2ccccc2cc1C(=O)NCCCN1CCOCC1, the inhibition was inconclusive: 8.76%.
For CC(C)(C)c1ccc(NC(=O)CSc2n[nH]c(=O)n2C2CC2)cc1, the inhibition was inconclusive: 25.6%.
CCOc1ccccc1NC(=O)NC1CCCc2ccccc21 (configuration not stated) was tested, and the inhibition was inconclusive: 16.2%.
CCCCn1c(=O)[nH]c(=O)c2c1nc(-c1cc3c(cc1Br)OCO3)n2C was tested, and the inhibition was inconclusive: 17.9%.
For CCOc1ccc(NC(=O)CN2C(=O)NC3(CCCCCC3)C2=O)cc1, the inhibition was inactive: -0.235%.
CCNCc1ccccc1OCc1ccccc1 was tested, and the inhibition was inactive: 3.53%.
For O=C(NCc1ccc(Cl)cc1Cl)c1ccc2nc[nH]c2c1, the inhibition was inactive: 2.11%.
With Oc1ccc(Oc2ncc(Cl)cc2Cl)cc1 the inhibition was inactive: 4.14%.
With O=C(O)c1ccc(N/N=C/c2ccncc2)cc1 the inhibition was inconclusive: 16.4%.
In the case of CCN1CCN(C(=O)C2CCC(CNS(=O)(=O)c3ccccc3)CC2)CC1 (configuration not stated), the inhibition is reported as inconclusive: 14.7%.
In the case of CCOC(=O)c1cc(-c2ccccc2)n(CCC(=O)NC(C)CC)c1C (configuration not stated), the inhibition is reported as inconclusive: 12.5%.
With O=C1OCCN1CCN(CN1C(=O)CCC1=O)CN1C(=O)CCC1=O the inhibition was inconclusive: 13.2%.
In the case of CC(=O)CC(C)=NCCN=C(C)CC(C)=O, the inhibition is reported as inconclusive: 28.9%.
In the case of Cc1ccc(C2NC(=O)c3c(sc4c3CCN(C)C4)N2)o1 (configuration not stated), the inhibition is reported as inactive: -7.42%.
For COc1cc(OC)c(-c2sc(Nc3ccccc3)n[n+]2-c2ccc(F)cc2)cc1OC, the inhibition was inactive: 3.01%.
For c1csc(-c2nc3ccccn3c2NC2CCCCC2)c1, the inhibition was inconclusive: 5.88%.
OCCN(Cc1ccccc1)Cc1ccc(Cl)cc1Cl was tested, and the inhibition was inconclusive: 15.5%.
For Cc1nc2c(c(=O)c3ccccc3n2C)c(=O)n1C1CCCCCC1, the inhibition was inconclusive: 11.6%.
With CC(=O)/C=C\c1ccc(OC(=O)c2cccnc2)cc1 the inhibition was inconclusive: 14.6%.
For CS(=O)(=O)Nc1ccccc1C(=O)Nc1ccccc1Cl, the inhibition was inconclusive: 22.4%.
For COc1ccc(OC)c(-c2cc(C(=O)Nc3c(C)nn(Cc4ccccc4)c3C)no2)c1, the inhibition was inconclusive: 30.3%.
With CCN(CC)C(=O)Cn1cc(C(=O)C(=O)N2CCN(C)CC2)c2ccccc21 the inhibition was inactive: 15%.
In the case of COc1ccc(C(N)CCc2ccc(C)o2)cc1 (configuration not stated), the inhibition is reported as inactive: -2.28%.
For Cc1ccc(-c2n[nH]c(=S)n2/N=C/c2ccc(C(=O)O)cc2)cc1, the inhibition was inactive: 10.5%.
With CC(=O)c1cccc(NC(=O)CCNC(=O)c2cccc(C)c2)c1 the inhibition was inactive: 0.894%.
COc1ccc(/C=N/NC(=O)c2ccccc2OC)cc1COc1ccccc1[N+](=O)[O-] was tested, and the inhibition was inconclusive: 20.6%.
For Clc1ccc(-c2nc3cc(CN4CCCCC4)ccc3o2)cc1, the inhibition was inactive: -6.25%.
With Cn1c(=O)c2cc(S(=O)(=O)NCCC(=O)NCc3ccccc3Cl)ccc2n(C)c1=O the inhibition was inactive: -3.87%.
In the case of O=C(NCc1ccc2c(c1)OCO2)c1cc(-c2cc(Cl)ccc2O)n[nH]1, the inhibition is reported as inconclusive: 27%.
In the case of Cc1c(OCC(=O)NCCCN2CCOCC2)ccc2c3c(c(=O)oc12)CCC3, the inhibition is reported as inactive: -5.73%.
For O=[N+]([O-])c1c(-c2cn[nH]c2)n[nH]c1-c1cn[nH]c1, the inhibition was inconclusive: 8.71%.
For CCOc1ccc(-c2csc(NNC3=NCCCCC3)n2)cc1, the inhibition was inconclusive: 43.2%.
CC(C)=CC(=O)O[C@@H]1Cc2cc3ccc(=O)oc3cc2OC1(C)C was tested, and the inhibition was inactive: -17.2%.
Cc1cc(C)cc(N=c2c([N+](=O)[O-])nn(-c3ccc4c(c3)OCCO4)n2O)c1 was tested, and the inhibition was inconclusive: 16.8%.
CC(C)(C)n1ncc2c(=O)n(Cc3cccc(Cl)c3)cnc21 was tested, and the inhibition was inconclusive: 18.8%.
For Cc1ccc2nsnc2c1NS(=O)(=O)c1c(C)ccc2nsnc12, the inhibition was inactive: 4.46%.
For O=C(Oc1ccc2ccc(O)cc2c1)C1CCCCC1, the inhibition was inconclusive: 20.2%.
For COc1cccc(N2CCN(C(=O)c3ccc(Cl)c(NC4=NC5CS(=O)(=O)CC5S4)c3)CC2)c1 (configuration not stated), the inhibition was inactive: -6.88%.
O=C(COC(=O)c1cc(S(=O)(=O)N2CCCC2)ccc1O)Nc1ccc(F)cc1F was tested, and the inhibition was inconclusive: 17.3%.
In the case of COCCNC(=O)C1CCN(S(=O)(=O)c2c(C)noc2/C=C/c2cccs2)CC1, the inhibition is reported as inconclusive: 18.4%.
CCCNS(=O)(=O)c1ccc(CCC(=O)N2CCCCC2)cc1 was tested, and the inhibition was inconclusive: 13%.
For Clc1ccc(OCCN2CCOCC2)cc1Cl, the inhibition was inactive: 3.1%.
CCN(c1ccccc1)S(=O)(=O)c1cccc(C(=O)NCC2(N(C)C)CCCCC2)c1 was tested, and the inhibition was inactive: 2.85%.
CC(=O)N1CCc2c(sc3c2c(=O)n(-c2ccccc2)c(=O)n3CC(=O)NCC2CCCO2)C1 (configuration not stated) was tested, and the inhibition was inconclusive: 20%.
In the case of O=C(Nc1cccc2c1CCCC2)c1cc([N+](=O)[O-])cc([N+](=O)[O-])c1, the inhibition is reported as inconclusive: 18.5%.
With c1ccc(C[n+]2cccc3c4ccccc4ccc32)cc1 the inhibition was inactive: -53.6%.
O=[N+]([O-])c1cccnc1N1CCN(c2ccc(F)cc2)CC1 was tested, and the inhibition was inactive: 7.96%.
For Cc1ccc2c(c1)N(CC(=O)N1CCOCC1)C(=O)CO2, the inhibition was inconclusive: 24.6%.
In the case of CCCCn1c(-c2csc3ccccc23)n[nH]c1=S, the inhibition is reported as inactive: 16.1%.
For N=c1c(C(=O)NC2CCCCC2)cc2c(=O)n3ccccc3nc2n1Cc1ccccc1, the inhibition was inactive: -408%.
With CC(C)Oc1cc(NC(=O)CS(=O)CC(=O)N(C)C)c(Cl)cc1Cl (configuration not stated) the inhibition was inconclusive: 13.7%.
In the case of Cc1cc(Cl)ccc1OCCCC(=O)NO, the inhibition is reported as active: 76.8%.
COc1ccc(N=Cc2nc(-c3ccccc3)oc2OC(C)=O)cc1 was tested, and the inhibition was active: 37.7%.
CN1CCN(C(=O)c2cn(-c3ccccc3)nc2-c2cccs2)CC1 was tested, and the inhibition was inconclusive: 15.1%.
For CN(Cc1ccccc1)C(=O)c1nn2cccnc2c1Cl, the inhibition was inconclusive: 11.9%.
For Nc1cc(OC(=O)c2ccc(F)cc2)nn1S(=O)(=O)c1ccc(F)cc1, the inhibition was active: 60%.
For O=C(CSc1nnnn1-c1ccc(O)cc1)c1cc2ccccc2o1, the inhibition was inconclusive: 18.1%.
With COc1ccc(-c2cc(-c3nc4ccccn4c3NCc3ccccc3)ccc2OC)cc1 the inhibition was inactive: -9.36%.
For CC1CCN(CCCNC(=O)c2ccc(CSCc3cccc(Cl)c3)o2)CC1, the inhibition was inactive: 0.681%.
With O=C(NCc1ccco1)c1cccc(Nc2nc3ccc(Br)cc3[nH]2)c1 the inhibition was inconclusive: 24.4%.
With Cc1ccc(NC(=O)C2Oc3ccccc3OC2C)cc1 (configuration not stated) the inhibition was inconclusive: 19.1%.
With Cc1ccc(Nc2nc3nonc3nc2N(C)C)cc1 the inhibition was inconclusive: 18.6%.
C[C@H](CO)N1C[C@H](C)[C@@H](CN(C)Cc2ccncc2)Oc2ccc(NC(=O)CCCCCC(=O)Nc3ccccc3N)cc2C1=O was tested, and the inhibition was active: 89.9%.
With Cc1ccc(S(=O)(=O)Nc2cc(C(F)(F)F)ccc2N2CCOCC2)c(C)c1 the inhibition was inconclusive: 22.3%.
COc1ccc(S(=O)(=O)n2nc(-c3ccc(Cl)cc3)cc2N)cc1OC was tested, and the inhibition was inconclusive: 30.1%.
In the case of O=C(NC(=S)Nc1ccc(F)c(Cl)c1)C1CC1, the inhibition is reported as inactive: -12.8%.
For COc1ccc(C2c3[nH]c4ccccc4c3C[C@H]3C(=O)N(C)CC(=O)N23)cc1OC (some centres not stated), the inhibition was inconclusive: 12.6%.
For Cc1ccc(C)c(S(=O)(=O)NCCCc2ccccc2)c1, the inhibition was inconclusive: 19.2%.
CC(C)C(OC(=O)c1nsc(Cl)c1Cl)C(=O)NCC1CCCO1 (configuration not stated) was tested, and the inhibition was inconclusive: 15.2%.
With CN(C)S(=O)(=O)c1cccc(NC(=O)CCNC(=O)c2ccccc2Cl)c1 the inhibition was inconclusive: 12.7%.
